Measurements as given in PMC3573055.
Results are given in words; binding and its absence hold for the method and conditions named. Binding seen in cells or lysates may run through a third protein. Some entries that bind do so weakly or less than the wild type.

Chains of the proteins cited; added tags and fusions are not shown. Residues count along the entry.
UniProt P10909, residues 23-449: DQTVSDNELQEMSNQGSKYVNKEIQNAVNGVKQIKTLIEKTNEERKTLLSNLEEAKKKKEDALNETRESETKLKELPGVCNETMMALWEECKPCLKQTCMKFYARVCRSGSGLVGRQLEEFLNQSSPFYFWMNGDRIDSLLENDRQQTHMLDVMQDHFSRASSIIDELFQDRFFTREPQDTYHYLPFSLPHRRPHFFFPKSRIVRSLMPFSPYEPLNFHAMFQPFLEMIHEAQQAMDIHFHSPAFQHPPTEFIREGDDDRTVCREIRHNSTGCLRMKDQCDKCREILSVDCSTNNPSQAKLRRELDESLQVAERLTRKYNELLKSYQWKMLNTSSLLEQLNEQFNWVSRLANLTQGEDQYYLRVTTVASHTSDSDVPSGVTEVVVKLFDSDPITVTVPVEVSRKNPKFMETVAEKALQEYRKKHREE
UniProt P11021, residues 19-654: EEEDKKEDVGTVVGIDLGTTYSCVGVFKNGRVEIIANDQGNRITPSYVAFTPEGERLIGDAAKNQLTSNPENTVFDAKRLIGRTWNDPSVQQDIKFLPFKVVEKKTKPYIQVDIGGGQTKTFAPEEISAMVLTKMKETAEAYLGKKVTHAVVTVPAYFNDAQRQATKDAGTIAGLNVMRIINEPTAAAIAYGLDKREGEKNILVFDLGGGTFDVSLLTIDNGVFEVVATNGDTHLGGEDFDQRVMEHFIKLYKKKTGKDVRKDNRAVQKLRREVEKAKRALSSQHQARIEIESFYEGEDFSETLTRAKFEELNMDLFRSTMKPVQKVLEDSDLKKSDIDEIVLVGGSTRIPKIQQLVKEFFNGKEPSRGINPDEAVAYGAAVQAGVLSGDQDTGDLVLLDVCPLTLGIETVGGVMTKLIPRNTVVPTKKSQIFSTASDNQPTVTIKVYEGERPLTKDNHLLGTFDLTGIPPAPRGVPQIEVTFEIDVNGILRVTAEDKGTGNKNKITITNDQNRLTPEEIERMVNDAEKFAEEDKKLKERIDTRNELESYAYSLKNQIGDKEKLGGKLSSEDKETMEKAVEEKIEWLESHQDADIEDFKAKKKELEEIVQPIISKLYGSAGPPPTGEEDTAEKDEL

Target: Clusterin (CLU) (human (endogenous in SMMC7721, HCCLM3 and HepG2)) (UniProt P10909)
Test: co-IP; pre-cleared whole cell lysates of SMMC7721, HCCLM3 and HepG2 cells, with or without 1 µg/ml tunicamycin for 24 h, incubated with goat anti-CLU antibody conjugated to AminoLink Plus Resin overnight at 4°C; gentle non-reducing, non-denaturing elution; Western blot with anti-GRP78

Glucose-regulated protein 78 (GRP78) (from UniProt P11021 19-654)
binding: binds
